T1: GST-Rb (379-928) (human) (UniProt P06400)
T1 sequence: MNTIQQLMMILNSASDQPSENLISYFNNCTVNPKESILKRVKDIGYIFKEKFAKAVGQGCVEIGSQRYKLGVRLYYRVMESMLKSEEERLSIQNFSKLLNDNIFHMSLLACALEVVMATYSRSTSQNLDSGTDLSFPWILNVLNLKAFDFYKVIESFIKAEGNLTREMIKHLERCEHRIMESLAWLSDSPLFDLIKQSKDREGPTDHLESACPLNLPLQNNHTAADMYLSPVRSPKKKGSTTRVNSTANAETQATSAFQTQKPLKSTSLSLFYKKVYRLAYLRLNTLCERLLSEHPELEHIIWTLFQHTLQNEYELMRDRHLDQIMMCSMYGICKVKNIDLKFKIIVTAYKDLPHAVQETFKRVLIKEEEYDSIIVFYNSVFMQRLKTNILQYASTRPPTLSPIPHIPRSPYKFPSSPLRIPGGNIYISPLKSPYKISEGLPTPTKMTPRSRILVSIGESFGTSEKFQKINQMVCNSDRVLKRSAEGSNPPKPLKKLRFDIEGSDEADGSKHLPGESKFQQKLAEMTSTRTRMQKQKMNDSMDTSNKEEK

T2: Rb fused to BFP or EGFP (FRET) (human) (UniProt P06400)
T2 sequence: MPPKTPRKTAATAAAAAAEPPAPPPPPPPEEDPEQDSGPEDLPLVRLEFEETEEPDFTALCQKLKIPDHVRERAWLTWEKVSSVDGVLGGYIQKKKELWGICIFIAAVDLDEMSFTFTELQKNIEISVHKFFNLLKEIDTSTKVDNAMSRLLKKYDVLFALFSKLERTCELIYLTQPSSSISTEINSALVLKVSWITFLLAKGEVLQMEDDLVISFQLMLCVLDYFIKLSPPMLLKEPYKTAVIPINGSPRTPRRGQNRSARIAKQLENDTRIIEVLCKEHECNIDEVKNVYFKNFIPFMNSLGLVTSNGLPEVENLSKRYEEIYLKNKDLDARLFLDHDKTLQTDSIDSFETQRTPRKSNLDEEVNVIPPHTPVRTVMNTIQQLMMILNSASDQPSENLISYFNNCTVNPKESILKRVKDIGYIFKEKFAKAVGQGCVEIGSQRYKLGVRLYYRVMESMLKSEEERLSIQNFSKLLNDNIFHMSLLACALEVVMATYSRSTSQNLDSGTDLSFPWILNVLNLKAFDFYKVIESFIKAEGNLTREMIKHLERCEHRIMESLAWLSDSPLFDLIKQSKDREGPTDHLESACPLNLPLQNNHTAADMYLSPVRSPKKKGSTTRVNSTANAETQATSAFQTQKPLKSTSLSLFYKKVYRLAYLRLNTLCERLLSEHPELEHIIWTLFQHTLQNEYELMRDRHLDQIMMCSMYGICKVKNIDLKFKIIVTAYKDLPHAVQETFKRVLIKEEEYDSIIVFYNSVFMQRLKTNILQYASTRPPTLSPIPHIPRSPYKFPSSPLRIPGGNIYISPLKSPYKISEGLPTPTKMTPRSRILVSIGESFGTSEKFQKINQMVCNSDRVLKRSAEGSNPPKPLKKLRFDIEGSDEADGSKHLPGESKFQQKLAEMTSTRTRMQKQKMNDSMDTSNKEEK

B1: in vitro translated Orc1 fragment 151-269 (domain or fragment, UniProt Q13415 151-269)
chain: EKTLFVKLSWNEKKFRPLSSELFAELNKPQESAAKCQKPVRAKSKSAESPSWTPAEHVAKRIESRHSASKSRQTPTHPLTPRARKRLELGNLGNPQMSQQTSCASLDSPGRIKRKVAFS
modifications: [35S]-labelled
B2: in vitro translated Orc1 fragment 529-861 (domain or fragment, UniProt Q13415 529-861)
chain: CMYISGVPGTGKTATVHEVIRCLQQAAQANDVPPFQYIEVNGMKLTEPHQVYVQILQKLTGQKATANHAAELLAKQFCTRGSPQETTVLLVDELDLLWTHKQDIMYNLFDWPTHKEARLVVLAIANTMDLPERIMMNRVSSRLGLTRMCFQPYTYSQLQQILRSRLKHLKAFEDDAIQLVARKVAALSGDARRCLDICRRATEICEFSQQKPDSPGLVTIAHSMEAVDEMFSSSYITAIKNSSVLEQSFLRAILAEFRRSGLEEATFQQIYSQHVALCRMEGLPYPTMSETMAVCSHLGSCRLLLVEPSRNDLLLRVRLNVSQDDVLYALKDE
modifications: [35S]-labelled
B3: in vitro translated Orc1 LPGRK protein (mutated in the LxCxE motif of Orc1) (protein, UniProt Q13415 1-861)
chain: MAHYPTRLKTRKTYSWVGRPLLDRKLHYQTYREMCVKTEGCSTEIHIQIGQFVLIEGDDDENPYVAKLLELFEDDSDPPPKKRARVQWFVRFCEVPACKRHLLGRKPGAQEIFWYDYPACDSNINAETIIGLVRVIPLAPKDVVPTNLKNEKTLFVKLSWNEKKFRPLSSELFAELNKPQESAAKCQKPVRAKSKSAESPSWTPAEHVAKRIESRHSASKSRQTPTHPLTPRARKRLELGNLGNPQMSQQTSCASLDSPGRIKRKVAFSEITSPSKRSQPDKLQTLSPALKAPEKTRETGLSYTEDDKKASPEHRIILRTRIAASKTIDIREERTLTPISGGQRSSVVPSVILKPENIKKRDAKEAKAQNEATSTPHRIRRKSSVLTMNRIRQQLRFLGNSKSDQEEKEILPAAEISDSSSDEEEASTPPLPRRAPRTVSRNLRSSLKSSLHTLTKVPKKSLKPRTPRCAAPQIRSRSLAAQEPASVLEEARLRLHVSAVPESLPGRKQEFQDIYNFVESKLLDHTGGCMYISGVPGTGKTATVHEVIRCLQQAAQANDVPPFQYIEVNGMKLTEPHQVYVQILQKLTGQKATANHAAELLAKQFCTRGSPQETTVLLVDELDLLWTHKQDIMYNLFDWPTHKEARLVVLAIANTMDLPERIMMNRVSSRLGLTRMCFQPYTYSQLQQILRSRLKHLKAFEDDAIQLVARKVAALSGDARRCLDICRRATEICEFSQQKPDSPGLVTIAHSMEAVDEMFSSSYITAIKNSSVLEQSFLRAILAEFRRSGLEEATFQQIYSQHVALCRMEGLPYPTMSETMAVCSHLGSCRLLLVEPSRNDLLLRVRLNVSQDDVLYALKDE
modifications: [35S]-labelled
B4: in vitro translated Orc1 fragment 270-861 (domain or fragment, UniProt Q13415 270-861)
chain: EITSPSKRSQPDKLQTLSPALKAPEKTRETGLSYTEDDKKASPEHRIILRTRIAASKTIDIREERTLTPISGGQRSSVVPSVILKPENIKKRDAKEAKAQNEATSTPHRIRRKSSVLTMNRIRQQLRFLGNSKSDQEEKEILPAAEISDSSSDEEEASTPPLPRRAPRTVSRNLRSSLKSSLHTLTKVPKKSLKPRTPRCAAPQIRSRSLAAQEPASVLEEARLRLHVSAVPESLPCREQEFQDIYNFVESKLLDHTGGCMYISGVPGTGKTATVHEVIRCLQQAAQANDVPPFQYIEVNGMKLTEPHQVYVQILQKLTGQKATANHAAELLAKQFCTRGSPQETTVLLVDELDLLWTHKQDIMYNLFDWPTHKEARLVVLAIANTMDLPERIMMNRVSSRLGLTRMCFQPYTYSQLQQILRSRLKHLKAFEDDAIQLVARKVAALSGDARRCLDICRRATEICEFSQQKPDSPGLVTIAHSMEAVDEMFSSSYITAIKNSSVLEQSFLRAILAEFRRSGLEEATFQQIYSQHVALCRMEGLPYPTMSETMAVCSHLGSCRLLLVEPSRNDLLLRVRLNVSQDDVLYALKDE
modifications: [35S]-labelled
B5: in vitro translated Orc1 fragment 1-144 (domain or fragment, UniProt Q13415 1-144)
chain: MAHYPTRLKTRKTYSWVGRPLLDRKLHYQTYREMCVKTEGCSTEIHIQIGQFVLIEGDDDENPYVAKLLELFEDDSDPPPKKRARVQWFVRFCEVPACKRHLLGRKPGAQEIFWYDYPACDSNINAETIIGLVRVIPLAPKDVV
modifications: [35S]-labelled
B6: EGFP-tagged middle fragment of Orc1 (151-269) (domain or fragment, UniProt Q13415 151-269)
chain: EKTLFVKLSWNEKKFRPLSSELFAELNKPQESAAKCQKPVRAKSKSAESPSWTPAEHVAKRIESRHSASKSRQTPTHPLTPRARKRLELGNLGNPQMSQQTSCASLDSPGRIKRKVAFS
B7: EGFP-tagged C-terminal fragment of Orc1 (270-861) (domain or fragment, UniProt Q13415 270-861)
chain: EITSPSKRSQPDKLQTLSPALKAPEKTRETGLSYTEDDKKASPEHRIILRTRIAASKTIDIREERTLTPISGGQRSSVVPSVILKPENIKKRDAKEAKAQNEATSTPHRIRRKSSVLTMNRIRQQLRFLGNSKSDQEEKEILPAAEISDSSSDEEEASTPPLPRRAPRTVSRNLRSSLKSSLHTLTKVPKKSLKPRTPRCAAPQIRSRSLAAQEPASVLEEARLRLHVSAVPESLPCREQEFQDIYNFVESKLLDHTGGCMYISGVPGTGKTATVHEVIRCLQQAAQANDVPPFQYIEVNGMKLTEPHQVYVQILQKLTGQKATANHAAELLAKQFCTRGSPQETTVLLVDELDLLWTHKQDIMYNLFDWPTHKEARLVVLAIANTMDLPERIMMNRVSSRLGLTRMCFQPYTYSQLQQILRSRLKHLKAFEDDAIQLVARKVAALSGDARRCLDICRRATEICEFSQQKPDSPGLVTIAHSMEAVDEMFSSSYITAIKNSSVLEQSFLRAILAEFRRSGLEEATFQQIYSQHVALCRMEGLPYPTMSETMAVCSHLGSCRLLLVEPSRNDLLLRVRLNVSQDDVLYALKDE
B8: EGFP-Orc1 (1-144) (domain or fragment, UniProt Q13415 1-144)
chain: MAHYPTRLKTRKTYSWVGRPLLDRKLHYQTYREMCVKTEGCSTEIHIQIGQFVLIEGDDDENPYVAKLLELFEDDSDPPPKKRARVQWFVRFCEVPACKRHLLGRKPGAQEIFWYDYPACDSNINAETIIGLVRVIPLAPKDVV
B9: Orc2 fused to EGFP or BFP (FRET) (protein, UniProt Q13416 1-577)
chain: MSKPELKEDKMLEVHFVGDDDVLNHILDREGGAKLKKERAQLLVNPKKIIKKPEYDLEEDDQEVLKDQNYVEIMGRDVQESLKNGSATGGGNKVYSFQNRKHSEKMAKLASELAKTPQKSVSFSLKNDPEITINVPQSSKGHSASDKVQPKNNDKSEFLSTAPRSLRKRLIVPRSHSDSESEYSASNSEDDEGVAQEHEEDTNAVIFSQKIQAQNRVVSAPVGKETPSKRMKRDKTSDLVEEYFEAHSSSKVLTSDRTLQKLKRAKLDQQTLRNLLSKVSPSFSAELKQLNQQYEKLFHKWMLQLHLGFNIVLYGLGSKRDLLERFRTTMLQDSIHVVINGFFPGISVKSVLNSITEEVLDHMGTFRSILDQLDWIVNKFKEDSSLELFLLIHNLDSQMLRGEKSQQIIGQLSSLHNIYLIASIDHLNAPLMWDHAKQSLFNWLWYETTTYSPYTEETSYENSLLVKQSGSLPLSSLTHVLRSLTPNARGIFRLLIKYQLDNQDNPSYIGLSFQDFYQQCREAFLVNSDLTLRAQLTEFRDHKLIRTKKGTDGVEYLLIPVDNGTLTDFLEKEEEEA

The text below walks through data of article PMC2976706.

No constants are given. Whether binding was seen depends on the method and setting. In cells and extracts the contact can be indirect. Some results given as binding are weak or reduced against the parent protein; the word gives no strength. Where a sequence is shown, tags or fusion partners need not be part of it.

The target of the first assay is T1, GST-Rb (379-928) (human). The experiment in a line: pull-down; 1 ug GST fusion protein on glutathione-agarose beads, pretreated with DNase I and RNase A, incubated with in vitro translated [35S]-protein in 0.1 mg/ml ethidium bromide; SDS-PAGE, phosphoimaging; only the target purified.
Turning to B1, the binding result was “binds weakly”.
On to B2, for which the binding entry is “no binding”.
Same read-out and setting: then B3, with “binds”; and B4, with “binds”; and B5, with “no binding”.

The next assay has as its target T2, Rb fused to BFP or EGFP (FRET) (human). The experiment in a line: FRET or BRET; HeLa cells transiently transfected with EGFP and BFP fusion pairs; ratio of EGFP emission at 520 nm after excitation at 350 nm to that after 480 nm, at least 10 cells a pair.
Regarding B6, the binding entry is recorded as “binds”.
On to B7, for which the binding entry was “binds”.
On to B8, for which the binding result is “no binding”.
For B9, the binding entry was “no binding”.
